Among all 300,000 compounds or so, about 5,400 (1.8%) were called active. The inconclusive results got no clear call from the source; some entries with a clear call stand among them for comparison. The call rests on the fitted dose curve; tested in HEK293 cells. Where the call is inconclusive, the potency comes from a doubtful curve fit.
Test: qHTS for inhibitors of binding or entry into cells for Marburg Virus
Details: Marburg virus pseudotyped entry inhibition, cell reporter; series mostly up to 37.8 µM
Potency means the concentration at half of the fitted maximal effect.

Row | Compound | Potency
1 | O=C(NCCc1ccccc1)C1CCN(S(=O)(=O)N2CCC3(CC2)OCCO3)CC1 | inactive
2 | COc1cc(/C=C2\SC(=O)N(c3ccc(Cl)cc3)C2=O)cc([N+](=O)[O-])c1O | inconclusive: 35.5 µM [inhibitor, single point]
3 | O=C(CCl)N(CCc1ccccc1)CCc1ccccc1 | inconclusive: 11.2 µM [inhibitor, partial curve, poor fit]
4 | Cc1ccc(S(=O)(=O)N2CCN(CC(=O)NC3CCCc4ccccc43)CC2)c(C)c1 (configuration not stated) | inactive
5 | CN(C)C(CNC(=O)c1ccc(-c2ccccc2)cc1)c1ccccc1 (configuration not stated) | active: 11.2 µM
6 | CC(=O)c1ccc(N2CCN(CN3C(=O)CC4(CCCC4)C3=O)CC2)c(F)c1 | inactive
7 | CC1(C)CC(=O)C/C(=N\NC(=O)Cc2ccccc2)C1 | inconclusive: 14.1 µM [activator, single point]
8 | NC(=O)c1ccc(NC(=O)CSc2nnc(-c3ccncc3)n2Cc2ccco2)cc1 | inconclusive: 5.01 µM [inhibitor, partial curve, poor fit]
9 | O=C(N/N=C/c1nn(-c2ccccc2)cc1-c1ccccc1)c1ccncc1 | inactive
10 | COc1cccc(CNCCSc2nnnn2C)c1OCc1ccc(Cl)cc1Cl | inconclusive: 35.5 µM [inhibitor, single point]
11 | COc1ccccc1CNC(=O)Cn1c(=O)oc2cc(S(=O)(=O)N3CCC(C)CC3)ccc21 | inconclusive: 35.5 µM [inhibitor, single point]
12 | C=CCN(C(=O)CCS(=O)(=O)c1cccc2nsnc12)c1ccccc1 | inactive
13 | CC(C)CC(=O)NC(NC(=S)Nc1sc2c(c1C#N)CCCC2)C(Cl)(Cl)Cl (configuration not stated) | inconclusive: 0.0046 µM [activator, full curve, poor fit]
14 | COc1ccc(NC(=S)Nc2ccc(Oc3ccccc3)cc2)cc1 | inconclusive: 35.5 µM [inhibitor, single point]
15 | CC(C)[C@H](NC(=O)c1ccccc1Cl)C(=O)Nc1nc(-c2ccccn2)cs1 | inconclusive: 7.94 µM [inhibitor, partial curve, poor fit]
16 | CCOc1ccc(NC(=O)Cc2coc3ccc(C)cc23)cc1 | inactive
17 | CCN(CCCCOC(=O)c1ccc(OC)c(OC)c1)[C@@H](C)Cc1ccc(OC)cc1 | inconclusive: 20.6 µM [inhibitor, single point]
18 | COC(=O)CN1C(=O)S/C(=C/c2cc(C)n(C)c2C)C1=O | inconclusive: 1.3 µM [activator, partial curve, poor fit]
19 | COC(=O)c1cccc(COC(=O)c2ccc(N(C)C)cc2)c1 | inactive
20 | CC(COc1ccccc1)NC(C)C(O)c1ccc(O)cc1 (configuration not stated) | inactive
21 | CC(=O)Nc1ccc(S(=O)(=O)Nc2ccc(Cl)nn2)cc1 | inconclusive: 20 µM [activator, partial curve, poor fit]
22 | O=C(CSc1nnc(-c2ccccc2O)o1)N1CCc2ccccc2C1 | inactive
23 | CC1CCCCC1NC(=O)C(Cc1ccccc1)NS(=O)(=O)c1cccs1 (configuration not stated) | inconclusive: 23.1 µM [inhibitor, single point]
24 | O=C(Cn1nc(C(=O)O)c2ccccc2c1=O)c1c[nH]c2ccccc12 | inactive

Quoted at random: 3 entries already listed
Row | Compound | Potency
11 | COc1ccccc1CNC(=O)Cn1c(=O)oc2cc(S(=O)(=O)N3CCC(C)CC3)ccc21 | inconclusive: 35.5 µM [inhibitor, single point]
17 | CCN(CCCCOC(=O)c1ccc(OC)c(OC)c1)[C@@H](C)Cc1ccc(OC)cc1 | inconclusive: 20.6 µM [inhibitor, single point]
8 | NC(=O)c1ccc(NC(=O)CSc2nnc(-c3ccncc3)n2Cc2ccco2)cc1 | inconclusive: 5.01 µM [inhibitor, partial curve, poor fit]

Continuation.

Row | Compound | Potency
25 | CC1(CCc2ccc(O)cc2)NC(=O)NC1=O (configuration not stated) | inactive
26 | Cc1cc(C)n(S(=O)(=O)c2cc(C)c(C)cc2C)n1 | inconclusive: 1.3 µM [inhibitor, full curve]
27 | COC(=O)c1ccc(N2CCN(S(=O)(=O)c3c(C)cc(C)cc3C)CC2)c([N+](=O)[O-])c1 | inconclusive: 5.62 µM [activator, single point]
28 | Cc1ccc2c(c1)C(c1ccccc1)N(C(=O)c1ccc(OC(C)C)cc1)CC(=O)N2 (configuration not stated) | inactive
29 | Cc1cccc(CCNC(=O)Cn2ncc3c(=O)oc4ccccc4c32)c1 | inactive
30 | O=C(c1ccco1)N(Cc1nc2ccccc2c(=O)[nH]1)C1CCCC1 | inconclusive: 0.562 µM [inhibitor, full curve, poor fit]
31 | CC(=O)c1ccc(NC(=O)CC(NCCC2=CCCCC2)C(=O)O)cc1 (configuration not stated) | inconclusive: 5.62 µM [activator, single point]
32 | CC(=O)c1cccc(NC(=O)C(Cc2ccccc2)NS(=O)(=O)c2ccc(Br)s2)c1 (configuration not stated) | inactive
33 | COc1ccc(CCNC(=O)CC(=O)NCCc2ccc(OC)cc2)cc1 | inactive
34 | CCS(=O)(=O)N1CCc2cc(C(=O)Nc3ccc(C)c(Cl)c3)ccc21 | inactive
35 | CCn1c(SCC(=O)Nc2ccccc2N2CCOCC2)nnc1-c1ccccc1O | inconclusive: 3.55 µM [inhibitor, full curve, poor fit]
36 | Cc1ccccc1C(=O)N1CCN(c2ccc(NC(=O)c3ccc4c(c3)OCO4)cc2)CC1 | inconclusive: 11.2 µM [inhibitor, partial curve, poor fit]
37 | CCCCOc1ccc(C(=O)NCC2(N3CCN(C)CC3)CCCCC2)cc1 | inconclusive: 10 µM [inhibitor, partial curve, poor fit]
38 | Cc1ccc(NC(=S)NCc2ccccc2)cc1[N+](=O)[O-] | active: 7.08 µM
39 | CC(Oc1ccc(F)cc1)C(=O)NN (configuration not stated) | inconclusive: 3.55 µM [activator, single point]
40 | O=C(N/N=C/c1ccccn1)c1ccccc1 | inconclusive: 31.6 µM [inhibitor, single point]
41 | Cc1sc(NC(=O)c2ccco2)c(C(c2cccnc2)N2CCN(C)CC2)c1C (configuration not stated) | inconclusive: 35.5 µM [inhibitor, single point]
42 | O=c1cc(N2CCN(c3ccc(F)cc3)CC2)[nH]c(=O)n1C1CCCCC1 | inconclusive: 6.31 µM [inhibitor, single point]
43 | CCOc1cccc2sc(N(CCN(CC)CC)C(=O)c3ccc(S(=O)(=O)N4CCCC4)cc3)nc12 | inconclusive: 12.6 µM [inhibitor, single point]
44 | COc1ccc(CNC(=O)[C@H](C)NC(=O)[C@@H]2Cc3ccccc3CN2)cc1 | inactive
45 | CCOc1ccccc1NC(=S)N1CCC(NC(=O)C(C)(C)C)CC1 | inconclusive: 8.91 µM [inhibitor, partial curve, poor fit]
46 | C=CCNc1nc(-c2cc3ccccc3o2)cs1 | inconclusive: 11.2 µM [inhibitor, partial curve, poor fit]
47 | COC(=O)CS(=O)(=O)c1ccc2c(c1)CC(=O)N2 | inactive
48 | CCOc1ccccc1CN1C(=O)NC(C)(c2ccccc2)C1=O (configuration not stated) | inconclusive: 3.66 µM [inhibitor, full curve]

Row | Compound | Potency
49 | CC(C)CN(C(=O)COC(=O)CCSc1ccc(F)cc1)c1c(N)n(Cc2ccccc2)c(=O)[nH]c1=O | inconclusive: 35.5 µM [inhibitor, single point]
50 | O=C(Nc1ccccc1)Nc1nncs1 | inactive
51 | CCCS(=O)(=O)c1ncc(Cl)c(C(=O)Nc2c(C(=O)c3ccccc3)oc3ccccc23)n1 | inactive
52 | CCCCCn1c(NCc2ccccc2OC)nc2ccccc21 | inconclusive: 14.1 µM [inhibitor, single point]
53 | NCCCNCCSP(=O)(O)O | inconclusive: 0.1 µM [inhibitor, full curve]
54 | CCc1cc2c(cc3c(=O)n(CC(=O)N4CCC(C)CC4)nc(CC)n32)s1 | inactive
55 | CC(C)CCn1c2ccccc2c2cc(CC(N)=O)ccc21 | inconclusive: 15.8 µM [inhibitor, single point]
56 | CCOc1ccc2[nH]c3nc(SCC(=O)NC4CCCC4)nnc3c2c1 | inconclusive: 3.55 µM [inhibitor, partial curve, poor fit]
57 | CCOc1ccc(/C(O)=C2/C(=O)C(=O)N(c3ncccn3)C2c2ccc(C)cc2)cc1 (configuration not stated) | inactive
58 | CCc1nc(SCC(=O)c2ccccc2)c2c(=O)n(C)c(=O)n(C)c2n1 | inconclusive: 5.62 µM [inhibitor, single point]
59 | CC(=O)N1CCCc2ccc(NS(=O)(=O)c3ccc(C)c(C)c3)cc21 | inactive
60 | COC(=O)c1ccc(C(=O)NC(=S)Nc2nc3c(s2)CC(C)CC3)cc1 (configuration not stated) | inconclusive: 4.47 µM [activator, full curve, poor fit]
61 | CCC(=O)N1CCc2cc(Br)cc(S(=O)(=O)N3CCCC(C(=O)NCc4cccc(OC)c4)C3)c21 (configuration not stated) | inactive
62 | O=C(CCCCCNC(=O)c1ccccc1Cl)N/N=C/c1ccco1 | inactive
63 | O=C(N/N=C/c1ccc2c(c1)OCO2)c1cccc(NC(=O)c2ccccc2Cl)c1 | inconclusive: 11.2 µM [inhibitor, partial curve, poor fit]
64 | O=C(NC1(C(=O)NC2CCCC2)CCCCC1)c1ccc2c(c1)OCO2 | inconclusive: 0.891 µM [inhibitor, partial curve, poor fit]
65 | Cc1ccc(C(=O)COC(=O)c2ccc(O)cc2)cc1 | inconclusive: 31.6 µM [inhibitor, single point]
66 | CSc1ccccc1NC(=S)N/N=C/c1cccn1Cc1ccc(F)cc1 | inconclusive: 22.4 µM [inhibitor, single point]
67 | COCc1ccc(CN2CCc3c([nH]c4ccccc34)C2CC(C)C)o1 (configuration not stated) | inconclusive: 4.47 µM [inhibitor, full curve, poor fit]
68 | Nc1c(C(=O)Nc2ccc(Cl)c(C(F)(F)F)c2)sc2nc(-c3ccncc3)ccc12 | inactive
69 | c1ccc(COc2ccc(CNn3cnnc3)cc2)cc1 | inactive
70 | Cc1ccc2oc(-c3ccccc3)c(C(=O)O)c(=O)c2c1 | inconclusive: 15.8 µM [inhibitor, single point]
71 | O=C(CSc1ncnc2c1cnn2-c1ccccc1)NC1CCCC1 | inactive
72 | COc1ccc([C@H]2CC(=O)c3sc(N)nc3C2)cc1 | inactive

— PubChem BioAssay AID540276 (National Center for Advancing Translational Sciences (NCATS), 2011)
